Reference: patent publication US8404747B2, “Compositions and methods for modulating interaction between polypeptides” (The General Hospital Corporation, priority 2004, dated 2013)
Some entries share one result that the patent states for a list of compounds.

System: Cultured cells
Test: toxicity studies in cultured cells
Type: cell-based

Structure (SMILES) | cytotoxicity
O=C(Nc1ccc(Br)cc1)c1ccc(Br)c(S(=O)(=O)NC2CCCCC2)c1 [Compound C2, 4-Bromo-N-(4-bromo-phenyl)-3-cyclohexylsulfamoyl-benzamide] | none of compounds C1-C8 are cytotoxic
O=C(Nc1ccc(Br)cc1)c1cccc(S(=O)(=O)Nc2ccc(Br)cc2)c1 [Compound C2-8, N-(4-Bromo-phenyl)-3-(4-bromo-phenylsulfamoyl)-benzamide] | none of compounds C1-C8 are cytotoxic
CN(C)CCN1C(=O)c2ccc(Cl)c3c(Cl)ccc(c23)C1=O [Compound C1, 6,7-Dichloro-2-(2-dimethylamino-ethyl)-benzo[de]isoquinoline-1,3-dione] | none of compounds C1-C8 are cytotoxic
CCOc1ccc(C(=O)COC(=O)c2ccccc2O)cc1 [Compound M15, 2-Hydroxy-benzoic acid 2-(4-ethoxy-phenyl)-2-oxo-ethyl ester] | none of compounds C1-C8 are cytotoxic
O=C1c2cccc3c(N4CCOCC4)ccc(c23)C(=O)N1Cc1ccccc1 [Compound C4, 2-Benzyl-6-morpholin-4-yl-benzo[de]isoquinoline-1,3-dione] | none of compounds C1-C8 are cytotoxic
CC/C(=C/c1sc2ccc3ccccc3c2[n+]1CCCS(=O)(=O)[O-])SC [Compound C3, 3-[2-(2-Methylsulfanyl-but-1-enyl)-naphtho[1,2-d]thiazol-1-yl]-propane-1-sulfonic acid anion] | none of compounds C1-C8 are cytotoxic
